From article PMC7958410, “Hepatitis B virus X protein promotes vimentin expression via LIM and SH3 domain protein 1 to facilitate epithelial-mesenchymal transition and hepatocarcinogenesis” (Cell Communication and Signaling : CCS, 2021)

By UniProt entry, the sequences of proteins in these tests, tags left out.
UniProt P08670: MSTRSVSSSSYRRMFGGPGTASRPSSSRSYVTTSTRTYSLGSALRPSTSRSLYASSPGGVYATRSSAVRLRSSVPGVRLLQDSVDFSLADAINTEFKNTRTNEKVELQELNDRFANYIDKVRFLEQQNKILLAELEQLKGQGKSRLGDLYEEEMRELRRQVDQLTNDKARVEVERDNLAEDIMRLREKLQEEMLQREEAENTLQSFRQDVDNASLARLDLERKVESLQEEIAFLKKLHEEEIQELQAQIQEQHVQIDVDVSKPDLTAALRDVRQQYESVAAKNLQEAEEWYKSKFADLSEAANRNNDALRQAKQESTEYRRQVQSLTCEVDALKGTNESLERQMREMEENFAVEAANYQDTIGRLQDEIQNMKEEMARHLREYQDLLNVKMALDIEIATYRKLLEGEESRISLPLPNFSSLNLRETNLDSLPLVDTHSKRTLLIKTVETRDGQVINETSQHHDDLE

B1: GST-LASP1 (natural protein, UniProt Q14847 1-261, looked up)
chain: MNPNCARCGKIVYPTEKVNCLDKFWHKACFHCETCKMTLNMKNYKGYEKKPYCNAHYPKQSFTMVADTPENLRLKQQSELQSQVRYKEEFEKNKGKGFSVVADTPELQRIKKTQDQISNIKYHEEFEKSRMGPSGGEGMEPERRDSQDGSSYRRPLEQQQPHHIPTSAPVYQQPQQQPVAQSYGGYKEPAAPVSIQRSAPGGGGKRYRAVYDYSAADEDEVSFQDGDTIVNVQQIDDGWMYGTVERTGDTGMLPANYVEAI
notes: LIM and SH3 domain protein 1 (LASP1); also called LASP1 with GST Tag

Experiments:
Experiment in all cases: co-IP; plasmids of HBX, LASP1, vimentin and their deletion mutants co-transfected into HEK293T cells; western blot
[1] = target: HBX-2 (51–120 aa, a double-terminal deletion mutant of HBX) (hepatitis B virus) (UniProt P03165)
[2] = target: HBX-3 (51–154 aa, an N terminal deletion mutant of HBX) (hepatitis B virus) (UniProt P03165)
[3] = target: HBX-1 (1–120 aa, a C-terminal deletion mutant of HBX) (hepatitis B virus) (UniProt P03165)

Molecule | binding [1] | binding [2] | binding [3]
vimentin-Flag (from UniProt P08670 1-466) | binds | binds | binds
B1 |  |  | binds

These are yes or no findings as the source states them, for the method shown. Binding seen in cells or lysates may run through a third protein. A result given as binding can be weak or reduced; the word gives no strength. For some of these results: Sequences can lack the tags named with a protein.
